Data: the supplement of paper PMC12823440, “Inhibitors supercharge kinase turnover through native proteolytic circuits” (Nature, 2025)
This is one part of the list. Hit calls seldom repeat between salt and free forms of one compound.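 Kinases, fused to nanoluciferase, were expressed in K562 cells; luminescence was measured every 4 h from 2 to 18 h as percent of control (DMSO = 100%, positive control = 0%). A time point is decreased if signal falls significantly (2 sigma). Hits were called by the authors by a rule that is not shown; the count of time points alone does not decide it.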

The chains behind the UniProt entries cited, without tags or fusion partners. Where a name states a change or a piece, a line headed by the entry shows the natural chain unless it says otherwise.
UniProt Q15303, whole entry R711C: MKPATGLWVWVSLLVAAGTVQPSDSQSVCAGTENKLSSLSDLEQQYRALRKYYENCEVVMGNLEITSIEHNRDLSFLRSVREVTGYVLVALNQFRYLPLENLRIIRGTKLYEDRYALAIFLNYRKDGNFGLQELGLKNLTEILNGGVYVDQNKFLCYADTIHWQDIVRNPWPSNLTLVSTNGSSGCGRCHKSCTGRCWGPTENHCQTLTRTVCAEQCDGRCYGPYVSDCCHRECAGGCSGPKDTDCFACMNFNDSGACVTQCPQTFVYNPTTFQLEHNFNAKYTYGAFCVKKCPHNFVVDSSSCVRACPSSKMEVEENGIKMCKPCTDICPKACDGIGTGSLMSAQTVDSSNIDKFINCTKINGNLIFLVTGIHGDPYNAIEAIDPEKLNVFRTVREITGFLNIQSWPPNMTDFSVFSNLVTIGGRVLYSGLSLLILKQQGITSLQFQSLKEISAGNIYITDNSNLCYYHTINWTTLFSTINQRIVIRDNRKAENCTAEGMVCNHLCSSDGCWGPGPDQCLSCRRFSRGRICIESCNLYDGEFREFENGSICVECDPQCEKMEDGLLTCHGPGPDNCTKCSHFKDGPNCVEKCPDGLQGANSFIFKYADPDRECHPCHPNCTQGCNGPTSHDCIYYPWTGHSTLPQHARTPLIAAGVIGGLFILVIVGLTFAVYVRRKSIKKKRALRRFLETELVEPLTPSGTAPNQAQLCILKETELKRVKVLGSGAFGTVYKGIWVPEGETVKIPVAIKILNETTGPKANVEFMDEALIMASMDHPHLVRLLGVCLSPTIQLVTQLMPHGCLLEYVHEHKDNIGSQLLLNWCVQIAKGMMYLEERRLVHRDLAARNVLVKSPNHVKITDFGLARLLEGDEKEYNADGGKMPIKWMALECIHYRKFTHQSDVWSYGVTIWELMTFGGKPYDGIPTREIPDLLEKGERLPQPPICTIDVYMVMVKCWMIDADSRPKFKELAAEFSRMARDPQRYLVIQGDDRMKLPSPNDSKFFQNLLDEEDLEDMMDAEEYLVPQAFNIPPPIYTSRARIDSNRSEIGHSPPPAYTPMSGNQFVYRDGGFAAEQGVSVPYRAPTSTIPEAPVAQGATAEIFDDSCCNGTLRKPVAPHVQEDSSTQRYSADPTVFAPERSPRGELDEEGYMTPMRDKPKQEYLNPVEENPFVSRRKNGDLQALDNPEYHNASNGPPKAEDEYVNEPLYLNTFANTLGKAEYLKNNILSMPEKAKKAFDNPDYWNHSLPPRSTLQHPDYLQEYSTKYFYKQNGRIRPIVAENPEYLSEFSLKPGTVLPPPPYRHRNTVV
UniProt P21802, whole entry, looked up: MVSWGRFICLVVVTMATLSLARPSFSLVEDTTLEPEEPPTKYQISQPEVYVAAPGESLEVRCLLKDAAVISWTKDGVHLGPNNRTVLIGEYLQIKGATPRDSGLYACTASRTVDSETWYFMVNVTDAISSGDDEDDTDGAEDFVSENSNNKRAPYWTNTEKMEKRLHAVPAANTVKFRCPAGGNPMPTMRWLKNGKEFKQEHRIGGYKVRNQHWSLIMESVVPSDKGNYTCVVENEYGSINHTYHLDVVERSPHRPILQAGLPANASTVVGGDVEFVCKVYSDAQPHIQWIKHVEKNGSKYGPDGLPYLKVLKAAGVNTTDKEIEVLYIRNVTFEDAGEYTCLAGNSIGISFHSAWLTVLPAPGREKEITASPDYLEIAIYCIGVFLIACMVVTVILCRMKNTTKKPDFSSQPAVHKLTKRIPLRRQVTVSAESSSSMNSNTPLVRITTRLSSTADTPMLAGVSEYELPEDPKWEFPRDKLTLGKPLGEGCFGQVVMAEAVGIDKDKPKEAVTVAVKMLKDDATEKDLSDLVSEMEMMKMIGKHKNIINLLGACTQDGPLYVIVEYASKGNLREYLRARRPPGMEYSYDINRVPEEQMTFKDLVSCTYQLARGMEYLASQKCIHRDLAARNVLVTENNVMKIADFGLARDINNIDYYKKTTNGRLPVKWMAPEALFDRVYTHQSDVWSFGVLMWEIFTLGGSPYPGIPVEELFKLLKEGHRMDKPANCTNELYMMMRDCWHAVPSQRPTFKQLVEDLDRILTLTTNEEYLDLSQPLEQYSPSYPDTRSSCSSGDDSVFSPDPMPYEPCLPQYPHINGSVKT
UniProt P22607, whole entry, looked up: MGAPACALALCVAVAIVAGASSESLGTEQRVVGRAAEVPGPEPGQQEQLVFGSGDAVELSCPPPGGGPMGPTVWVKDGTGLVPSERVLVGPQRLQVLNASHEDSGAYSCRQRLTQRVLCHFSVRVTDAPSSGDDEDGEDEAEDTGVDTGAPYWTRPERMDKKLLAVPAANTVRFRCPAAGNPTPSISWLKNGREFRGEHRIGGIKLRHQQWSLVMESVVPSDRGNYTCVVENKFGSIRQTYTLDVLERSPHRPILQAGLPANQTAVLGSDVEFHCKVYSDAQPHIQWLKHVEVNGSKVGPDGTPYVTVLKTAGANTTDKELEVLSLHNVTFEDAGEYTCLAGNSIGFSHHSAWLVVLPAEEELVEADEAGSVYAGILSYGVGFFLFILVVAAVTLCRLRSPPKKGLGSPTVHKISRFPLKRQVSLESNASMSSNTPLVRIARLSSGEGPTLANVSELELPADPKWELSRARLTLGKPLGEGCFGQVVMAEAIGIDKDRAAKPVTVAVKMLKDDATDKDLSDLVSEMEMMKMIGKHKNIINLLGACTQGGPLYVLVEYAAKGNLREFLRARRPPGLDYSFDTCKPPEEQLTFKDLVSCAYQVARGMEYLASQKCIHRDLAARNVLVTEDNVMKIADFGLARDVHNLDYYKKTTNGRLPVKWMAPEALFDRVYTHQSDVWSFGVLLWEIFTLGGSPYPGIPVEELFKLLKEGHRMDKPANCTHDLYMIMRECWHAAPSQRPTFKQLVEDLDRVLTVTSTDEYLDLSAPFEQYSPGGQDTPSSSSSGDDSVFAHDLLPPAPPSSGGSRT
UniProt P36888, whole entry: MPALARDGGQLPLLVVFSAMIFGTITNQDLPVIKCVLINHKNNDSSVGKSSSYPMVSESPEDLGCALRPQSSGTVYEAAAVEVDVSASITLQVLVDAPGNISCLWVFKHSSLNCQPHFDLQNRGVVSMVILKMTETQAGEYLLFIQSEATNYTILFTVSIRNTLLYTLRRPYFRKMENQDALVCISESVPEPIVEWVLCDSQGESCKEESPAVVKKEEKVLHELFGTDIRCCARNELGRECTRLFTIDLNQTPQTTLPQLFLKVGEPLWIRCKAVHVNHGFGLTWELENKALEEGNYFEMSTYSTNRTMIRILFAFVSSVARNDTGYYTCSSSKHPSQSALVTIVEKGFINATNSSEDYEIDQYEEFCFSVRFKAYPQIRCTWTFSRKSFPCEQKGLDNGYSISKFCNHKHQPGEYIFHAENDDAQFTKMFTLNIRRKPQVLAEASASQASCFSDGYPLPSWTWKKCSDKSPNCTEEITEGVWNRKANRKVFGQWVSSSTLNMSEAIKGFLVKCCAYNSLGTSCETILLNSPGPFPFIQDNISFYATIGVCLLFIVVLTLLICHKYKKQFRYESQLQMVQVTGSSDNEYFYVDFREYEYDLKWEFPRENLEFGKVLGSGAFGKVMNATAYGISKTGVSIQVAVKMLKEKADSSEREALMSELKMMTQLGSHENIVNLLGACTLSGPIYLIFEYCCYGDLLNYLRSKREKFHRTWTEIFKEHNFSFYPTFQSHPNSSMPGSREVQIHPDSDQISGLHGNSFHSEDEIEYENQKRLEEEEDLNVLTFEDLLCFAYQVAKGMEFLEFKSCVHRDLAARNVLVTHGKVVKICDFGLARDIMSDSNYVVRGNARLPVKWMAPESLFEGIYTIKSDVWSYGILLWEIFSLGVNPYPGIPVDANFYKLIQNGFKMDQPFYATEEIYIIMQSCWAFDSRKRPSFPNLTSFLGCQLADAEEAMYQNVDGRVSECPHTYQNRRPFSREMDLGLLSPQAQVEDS
UniProt P06241, whole entry, looked up: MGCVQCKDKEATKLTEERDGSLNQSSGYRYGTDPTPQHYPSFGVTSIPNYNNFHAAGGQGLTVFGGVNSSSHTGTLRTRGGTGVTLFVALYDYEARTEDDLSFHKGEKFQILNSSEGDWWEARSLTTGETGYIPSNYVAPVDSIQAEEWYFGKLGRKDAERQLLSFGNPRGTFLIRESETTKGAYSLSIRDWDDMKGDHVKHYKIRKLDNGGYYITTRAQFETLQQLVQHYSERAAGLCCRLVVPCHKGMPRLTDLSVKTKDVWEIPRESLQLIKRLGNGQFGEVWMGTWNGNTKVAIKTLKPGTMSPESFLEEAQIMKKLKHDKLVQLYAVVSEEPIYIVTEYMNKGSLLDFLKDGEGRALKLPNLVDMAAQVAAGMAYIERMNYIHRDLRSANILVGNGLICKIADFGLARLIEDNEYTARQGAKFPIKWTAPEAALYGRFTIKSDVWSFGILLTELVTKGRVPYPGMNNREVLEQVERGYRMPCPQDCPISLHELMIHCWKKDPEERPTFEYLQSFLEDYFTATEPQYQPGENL
UniProt Q9Y616: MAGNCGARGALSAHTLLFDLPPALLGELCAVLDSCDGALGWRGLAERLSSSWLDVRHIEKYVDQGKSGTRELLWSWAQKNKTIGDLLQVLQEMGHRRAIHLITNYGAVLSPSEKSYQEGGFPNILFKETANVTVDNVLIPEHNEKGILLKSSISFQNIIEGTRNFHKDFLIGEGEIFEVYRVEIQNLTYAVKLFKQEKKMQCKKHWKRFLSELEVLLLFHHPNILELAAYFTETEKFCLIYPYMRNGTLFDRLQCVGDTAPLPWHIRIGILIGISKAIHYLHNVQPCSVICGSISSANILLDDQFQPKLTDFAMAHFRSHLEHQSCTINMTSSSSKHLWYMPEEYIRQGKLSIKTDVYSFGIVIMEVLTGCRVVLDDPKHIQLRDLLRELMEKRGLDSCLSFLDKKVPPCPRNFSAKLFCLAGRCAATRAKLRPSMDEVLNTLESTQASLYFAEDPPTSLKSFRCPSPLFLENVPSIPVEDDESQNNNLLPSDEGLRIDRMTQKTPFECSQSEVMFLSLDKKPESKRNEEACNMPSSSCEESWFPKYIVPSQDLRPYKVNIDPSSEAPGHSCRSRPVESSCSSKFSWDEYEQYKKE
UniProt P23458: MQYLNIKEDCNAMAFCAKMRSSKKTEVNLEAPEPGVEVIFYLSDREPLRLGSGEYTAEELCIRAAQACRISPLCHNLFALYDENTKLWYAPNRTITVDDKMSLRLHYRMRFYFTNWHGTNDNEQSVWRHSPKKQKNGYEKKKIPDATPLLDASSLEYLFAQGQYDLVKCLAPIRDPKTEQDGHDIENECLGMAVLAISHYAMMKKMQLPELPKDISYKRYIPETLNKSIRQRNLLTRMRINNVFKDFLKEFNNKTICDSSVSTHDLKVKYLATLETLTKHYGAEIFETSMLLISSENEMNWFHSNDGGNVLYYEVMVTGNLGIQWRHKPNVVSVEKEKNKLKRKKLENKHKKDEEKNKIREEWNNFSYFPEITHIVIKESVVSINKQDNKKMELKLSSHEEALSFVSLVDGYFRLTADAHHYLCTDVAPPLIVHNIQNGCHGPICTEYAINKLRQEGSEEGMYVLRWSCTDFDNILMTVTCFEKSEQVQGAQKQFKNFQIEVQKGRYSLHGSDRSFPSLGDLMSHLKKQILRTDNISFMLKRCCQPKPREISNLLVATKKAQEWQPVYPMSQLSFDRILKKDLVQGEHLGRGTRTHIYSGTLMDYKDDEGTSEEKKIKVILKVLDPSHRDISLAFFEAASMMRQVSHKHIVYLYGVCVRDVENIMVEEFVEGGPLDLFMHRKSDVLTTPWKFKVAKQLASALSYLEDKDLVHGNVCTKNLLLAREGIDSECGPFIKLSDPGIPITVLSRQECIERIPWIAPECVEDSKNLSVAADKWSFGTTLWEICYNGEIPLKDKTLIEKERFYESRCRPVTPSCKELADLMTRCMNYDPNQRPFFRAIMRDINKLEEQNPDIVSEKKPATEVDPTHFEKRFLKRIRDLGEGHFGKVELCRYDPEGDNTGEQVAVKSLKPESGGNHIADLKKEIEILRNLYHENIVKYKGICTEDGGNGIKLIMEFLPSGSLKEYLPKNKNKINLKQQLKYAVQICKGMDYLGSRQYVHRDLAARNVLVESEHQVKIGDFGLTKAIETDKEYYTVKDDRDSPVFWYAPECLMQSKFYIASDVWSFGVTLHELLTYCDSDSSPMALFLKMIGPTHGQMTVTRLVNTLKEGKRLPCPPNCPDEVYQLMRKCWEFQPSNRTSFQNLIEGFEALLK

Assays:
Experiment in all cases: number of time points (of 5) at which kinase-Nluc abundance scored as decreased, DMSO-normalised (count); higher = more persistent destabilization
Conditions in all cases: K562; 2-18 h
[1] = biological target: EGFR_L861Q (UniProt P00533)
[2] = biological target: EGFR_T790M (UniProt P00533)
[3] = biological target: EPHA2 (UniProt P29317)
[4] = biological target: ERBB3 (UniProt P21860)
[5] = biological target: ERBB4_R711C (clone: ERBB4_mut) (UniProt Q15303)
[6] = biological target: ERN1 (UniProt O75460)
[7] = biological target: FGFR1 (UniProt P11362)
[8] = biological target: FGFR2 (UniProt P21802)
[9] = biological target: FGFR3 (UniProt P22607)
[10] = biological target: FGR (UniProt P09769)
[11] = biological target: FLT3 (UniProt P36888)
[12] = biological target: FYN (UniProt P06241)
[13] = biological target: GSK3A (UniProt P49840)
[14] = biological target: HER2 (UniProt P04626)
[15] = biological target: INSRR (UniProt P14616)
[16] = biological target: IRAK3 (UniProt Q9Y616)
[17] = biological target: JAK1 (UniProt P23458)
[18] = biological target: LCK (UniProt P06239)
[19] = biological target: LIMK1 (UniProt P53667)
[20] = biological target: LIMK2 (UniProt P53671)

Measured: number of time points

CC1(C)CC=C(c2nc(C3CC(C)(C)OC(C)(C)C3)ccc2NC(=O)c2nc(C#N)c[nH]2)CC1 [Edicotinib] (2.5 µM)
0: all assays above

Cc1cccc(Cn2nc(C3CC3)c3c(NC(=O)c4cnc5cc(OCCN6CCN(C)CC6)ccn45)cccc32)n1 (10 µM)
0: all assays above

CN1CCN(c2ccc(C(=O)Nc3n[nH]c4ccc(Cc5cc(F)cc(F)c5)cc34)c(NC3CCOCC3)c2)CC1 [Entrectinib] (2.5 µM)
not listed: [18]
0: all other assays above

Nc1nc(N)c(N=O)c(OCC2CCCCC2)n1 (10 µM)
4: [5]
0: all other assays above

Oc1cc(O)cc(/C=C/c2ccc(O)c(O)c2)c1 [Piceatannol] (10 µM)
4: [5]
1: [12] | [20]
0: [2] | [3] | [4] | [9] | [13] | [17]
2: [10] | [11] | [19]
not listed: [18]
3: all other assays above

COc1cc2ncnc(Nc3cccc(O)c3)c2cc1OC (10 µM)
2: [1] | [6] | [7] | [12] | [14]
4: [11] | [19]
1: [2] | [9] | [13] | [20]
0: [3] | [10] | [18]
3: all other assays above

C=CC(=O)N1CC[C@H](n2nc(C#Cc3cc(OC)cc(OC)c3)c3c(N)ncnc32)C1 [Futibatinib] (10 µM)
not listed: [8]
0: all other assays above

COc1cc(OC)c(F)c(COc2cnc(Nc3cnn(CCO)c3)nc2)c1F (2.5 µM)
3: [20]
2: [1] | [5] | [17]
1: [14] | [15] | [19]
not listed: [9]
0: all other assays above

COc1cc(F)cc([C@@H](CO)NC(=O)[C@@H](C)N2Cc3ccc(-c4nc(NC5CCOCC5)ncc4Cl)cc3C2=O)c1 [ERK1/2 inhibitor 2] (10 µM)
2: [4]
0: all other assays above

CC(C)=CC/C=C(\C)[C@H]1CC[C@]2(C)[C@@H]1[C@H](O)C[C@@H]1[C@@]3(C)CC[C@H](O[C@@H]4O[C@H](CO)[C@@H](O)[C@H](O)[C@H]4O[C@@H]4O[C@H](CO)[C@@H](O)[C@H](O)[C@H]4O)C(C)(C)[C@@H]3CC[C@]12C [Ginsenoside Rg5] (10 µM)
not listed: [6]
0: all other assays above

O=c1c(-c2ccc(O)cc2)coc2cc(O)cc(O)c12 [Genistein] (10 µM)
not listed: [1] | [2]
0: all other assays above

C[C@H](NC(=O)/C(C#N)=C/c1cccc(Br)n1)c1ccccc1 (2.5 µM)
3: [12] | [20]
not listed: [2]
0: all other assays above

CCn1cc(-c2ccnc3[nH]c(-c4cccc(CN(C)C)c4)cc23)c(-c2ccc(NC(=O)N(C)C)cc2)n1 (2.5 µM)
not listed: [7]
0: all other assays above

COc1cc2nc(C)nc(N[C@H](C)c3cc(N)cc(C(F)(F)F)c3)c2cc1O[C@H]1CCOC1 (10 µM)
2: [8]
not listed: [1] | [2]
0: all other assays above

CN1CCN(C(=O)c2ccc(-c3ccc4c(C=O)c(O)ccc4c3)s2)CC1 (2.5 µM)
not listed: [6]
0: all other assays above

COc1ccc(C=C(C#N)c2cccnc2)cc1OC (10 µM)
not listed: [1] | [2]
0: all other assays above

C=CC(=O)N1CCN(CCCn2c(=O)c(-c3c(Cl)c(OC)cc(OC)c3Cl)cc3cnc(NC)nc32)CC1 (10 µM)
4: [12]
not listed: [7] | [8]
0: all other assays above

CCN1CCN(c2ccc(Nc3cc(N(C)C(=O)Nc4c(Cl)c(OC)cc(OC)c4Cl)ncn3)cc2)CC1 [Infigratinib] (10 µM)
not listed: [1] | [2]
0: all other assays above

O=C(/C=C/c1ccc(O)c(O)c1)c1ccc(O)cc1O [Butein] (10 µM)
3: [4] | [5] | [8] | [11] | [17] | [20]
2: [1] | [16] | [19]
4: [12] | [15]
not listed: [7]
0: all other assays above

Cc1ccc2c(Nc3cccc(OC(F)(F)F)c3)nccc2c1Nc1ncccc1-c1ncnc2[nH]cnc12 (10 µM)
not listed: [7]
0: all other assays above

COc1cc(OC)cc(N(CCNC(C)C)c2ccc3ncc(-c4cnn(C)c4)nc3c2)c1 [Erdafitinib] (2.5 µM)
not listed: [7] | [8] | [9] | [11]
0: all other assays above

COc1c(CC=C(C)C)c(O)cc2oc(=O)c(-c3ccc(O)cc3O)cc12 [Glycycoumarin] (10 µM)
not listed: [2]
0: all other assays above

O=C1Nc2ccccc2/C1=C/c1ccc(F)cc1 (10 µM)
not listed: [6]
0: all other assays above

CN1CCN(C2CCN(C(=O)Nc3cc(Oc4ccc(NC(=O)C5(C(=O)Nc6ccc(F)cc6)CC5)c(F)c4)ccn3)CC2)CC1 [Golvatinib] (2.5 µM)
3: [8]
2: [1] | [4] | [15]
1: [12]
not listed: [3]
0: all other assays above

CC(C)n1cnc2c(NCc3cccc(C(F)(F)F)c3)ncnc21 [Longdaysin] (10 µM)
not listed: [2]
0: all other assays above
